Data source: PubChem BioAssay AID504804 (Drosophila RNAi Screening Center, 2011)
In all, the deposit lists about 19,000 reagents; below is an unselected part of those with a known target gene and a result. Of all reagents, 47 (0.25%) were called active. 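Signals are raw, not normalised; exact z-scores behind calls not deposited; actives needed confirmation, so some wells reaching 2 SD are inactive.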 Unmarked entries are inactive. Names joined by + are all predicted targets of the reagent.

Screen: 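Fly genes whose loss lessens doxorubicin-driven cell death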 (primary screen)
Cell system: Drosophila Kc cells
Reagents: long dsRNA against Drosophila genes, 0.5 µg dsRNA per well
Time to read-out: 96 h (48 h knock-down, then 48 h drug)
Conditions: doxorubicin 5 µg/ml for 48 h, added 48 h after dsRNA
Read-out: 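Viability measured as cellular ATP by luminescence after 48 h knock-down then 48 h doxorubicin at 5 µg/ml; unnormalised plate counts for each replicate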
Direction: raw ATP luminescence: higher = more viable cells, protection from doxorubicin
Active means: 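Active when both duplicate wells lie at least 2 SD above the plate mean and protection is confirmed by rescreening and independent dsRNAs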

Target gene	dsRNA	SD above plate mean	raw ATP luminescence, replicate 1	raw ATP luminescence, replicate 2
CG14131 (GeneID 39328)	DRSC10135		85163	69963
CG7824 (GeneID 43530)	DRSC16321		49570	41630
MFS1 (GeneID 246519)	DRSC04115	2 to 3 SD above plate mean	50040	47340
CG4066 (GeneID 41493)	DRSC15541		56197	46470
CG10280 (GeneID 40740)	DRSC12133		72863	71750
sncRNA:430e + His2A:CG33859 + His2A:CG33817 + 37 more	DRSC21264		1.42e5	1.40e5
stx (GeneID 32005)	DRSC18442		82640	90470
stx (GeneID 32005)	DRSC18443		1.93e5	2.21e5
CG17350 (GeneID 35210)	DRSC02611		50413	48507
Or59b (GeneID 37715)	DRSC04632		41720	72057
gd (GeneID 32159)	DRSC20336		3.22e5	3.29e5
CG34265 (GeneID 5740186)	DRSC08030		1.21e5	1.51e5
CG2909 (GeneID 31958)	DRSC18241		2.96e5	2.56e5
Dll (GeneID 37973)	DRSC04610		35183	56750
Uch-L5R (GeneID 32173)	DRSC19825		2.96e5	2.83e5
CG17300 (GeneID 39489)	DRSC10260		81550	1.42e5
Sdhaf3 (GeneID 42004)	DRSC15020		1.07e5	85860
CG15760 (GeneID 32324)	DRSC19725		3.30e5	3.16e5
CG10477 (GeneID 38679)	DRSC09732		70710	69150
Snx6 (GeneID 34126)	DRSC03081		93127	57850
cid (GeneID 36495)	DRSC05429		1.03e5	1.15e5
Muc11A (GeneID 32174)	DRSC19498		4.18e5	3.63e5
Gdap2 (GeneID 59173)	DRSC06789		34617	71110
Gdap2 (GeneID 59173)	DRSC06790		41660	76800
Ptp10D (GeneID 32115)	DRSC20272		3.20e5	3.45e5
CG13457 (GeneID 39649)	DRSC10004		37057	36100
TwdlO (GeneID 43204)	DRSC16043		32450	42360
ArfGAP1 (GeneID 39417)	DRSC11173		61657	50703
RpL7 (GeneID 34352)	DRSC03417		21233	20370
CG42613 (GeneID 42269)	DRSC13332		83496	1.31e5
CG42613 (GeneID 42269)	DRSC14769		34260	37360
CG42613 (GeneID 42269)	DRSC15802		47120	79833
CG18179 (GeneID 39124)	DRSC10303		1.04e5	79397
Tusp (GeneID 43317)	DRSC15838		31790	41930
CG18223 (GeneID 40068)	DRSC10306		55010	59080
PGAP3 (GeneID 35570)	DRSC04989		70547	66183
CG15044 (GeneID 32834)	DRSC19620		2.73e5	2.50e5
CG34236 (GeneID 5740183)	DRSC05435		79970	84100
Pngl (GeneID 35527)	DRSC04914		50563	50673
CG18754 (GeneID 59145)	DRSC15387		55080	54650
fipi (GeneID 33676)	DRSC00465		42743	43407
CG7049 (GeneID 38022)	DRSC08587		51463	61173
CG13077 (GeneID 35252)	DRSC02181		71660	53790
Rbp1-like (GeneID 32293)	DRSC19828		3.47e5	3.60e5
Ugt50B3 (GeneID 246614)	DRSC04778		76270	90610
Ugt50B3 (GeneID 246614)	DRSC04779		89863	99123
CG15029 (retired record) (GeneID 32449)	DRSC19610		2.92e5	3.25e5
Poxn (GeneID 36741)	DRSC05589		1.24e5	1.14e5
RpL39 (GeneID 37849)	DRSC04651		18950	30570
CG8613 (GeneID 36593)	DRSC07222		70827	65540
RpLP0 (GeneID 40451)	DRSC11878		51090	41930
CLS (GeneID 43104)	DRSC15642		57200	66810
lok (GeneID 35288)	DRSC03567		87453	48637
GstO3 (GeneID 38972)	DRSC10710		85970	97240
CG7506 (GeneID 38857)	DRSC10860		47627	59823
Prdm13 (GeneID 38713)	DRSC09970		69583	99773
CG15203 (GeneID 32038)	DRSC19650		3.21e5	3.43e5

Reformatted: 7 of the entries above.
{"Target gene": "MFS1 (GeneID 246519)", "dsRNA": "DRSC04115", "SD above plate mean": "2 to 3 SD above plate mean", "raw ATP luminescence, replicate 1": 50040, "raw ATP luminescence, replicate 2": 47340}
{"Target gene": "CG4066 (GeneID 41493)", "dsRNA": "DRSC15541", "raw ATP luminescence, replicate 1": 56197, "raw ATP luminescence, replicate 2": 46470}
{"Target gene": "CG10280 (GeneID 40740)", "dsRNA": "DRSC12133", "raw ATP luminescence, replicate 1": 72863, "raw ATP luminescence, replicate 2": 71750}
{"Target gene": "sncRNA:430e + His2A:CG33859 + His2A:CG33817 + 37 more", "dsRNA": "DRSC21264", "raw ATP luminescence, replicate 1": 1.42e5, "raw ATP luminescence, replicate 2": 1.40e5}
{"Target gene": "stx (GeneID 32005)", "dsRNA": "DRSC18442", "raw ATP luminescence, replicate 1": 82640, "raw ATP luminescence, replicate 2": 90470}
{"Target gene": "stx (GeneID 32005)", "dsRNA": "DRSC18443", "raw ATP luminescence, replicate 1": 1.93e5, "raw ATP luminescence, replicate 2": 2.21e5}
{"Target gene": "CG17350 (GeneID 35210)", "dsRNA": "DRSC02611", "raw ATP luminescence, replicate 1": 50413, "raw ATP luminescence, replicate 2": 48507}
